The values are deposited in ChEMBL (CHEMBL3988442, “University of Dundee, Small-Polar-MMV Screening Library” (2021)).

Results are given as percent effect.
The record does not define 0% and 100%; most values in the screen are far below 50% and negative numbers occur (in some assays of this library far below -100).
This is an unselected part of the compounds tested.
Two or more numbers in one place are separate tests of the same structure; such repeats can differ widely.

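Viability assay of Plasmodium falciparum sporozoites; the read-out is not stated. The concentration is filed as 10 mM, unlikely as a test dose, so the dose is not known. Direction is inferred from retests: higher values go with lower viability. Strong results were mostly tested again. Size under these conditions: about 34,000 compounds, about 280 of them at 50% or above in at least one test.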

compound	percent effect
CCn1cc(CN2CCCN(C(=O)CCCn3cncn3)CC2)cn1	-0.1635%
O=C1NCC2(CCCN(CCc3ccccc3)C2)Oc2ccccc21 (centres undefined)	-6.754%
CCNc1ccnc(NC2CCN(CC(N)=O)CC2)n1	0.3552%
CC(C)Nc1ncc(-c2csc(NC(=O)C[C@H]3COCCN3)n2)cn1	19.73%
Cc1ccsc1C(=O)NCCCn1nc2ccccn2c1=O	-0.4177%
CC(C)c1nc(C2CCCN(C(=O)Cn3ccccc3=O)C2)no1 (centres undefined)	9.955%
CCc1nc(C2CCCN(C(=O)c3ccc(OC)cc3)C2)no1 (centres undefined)	16.16% and -1.463% and 1.713%
OCCOCCN1CCCC1c1nc2cc(F)ccc2[nH]1 (centres undefined)	-0.8419%
Cc1sc2c(C3CCCN(C(C)C)C3)nc(C)n2c1C (centres undefined)	0.593%
Cc1cnn(CC2CN(CCc3ccccn3)CCO2)c1 (centres undefined)	7.066%
[H][C@]12CCN[C@@]1([H])CN(C(=O)CC(F)(F)F)C2	-1.798%
O=C(NCc1cn2c(n1)SCC2)c1ccc(CN2CCCCC2)cc1	-12.75%
CC(=O)N1CCCC(c2ccc(N3CCN(C)CC3)cn2)C1 (centres undefined)	3.54%
CC1CCN(Cn2nc(-c3ccc(F)cc3)oc2=O)CC1	5.233%
Cn1cc(CN2CCC3(CC2)CN(C(=O)c2cnccn2)CCO3)cn1	-6.878% and -15.9% and 26.31%
O=C(Cc1ccsc1)N1CCc2ncc(Cn3cccn3)n2CC1	2.148%
CN(C)c1cc2c(nn1)CCN(C(=O)C1Cc3ccccc3O1)C2 (centres undefined)	-1.953%
Cc1cnn(CCNCc2ccc(F)cc2Cl)c1	-23.14%
CN(C)C(=O)c1nnn(-c2ccc(Br)cc2)n1	-38.7% and -30.45% and 35.36%
[H][C@@]12C[C@H](C(=O)N3CCCC3)[C@@]([H])(CN(c3ncc(F)cn3)C1)O2	10.46%
Cc1ccc(C(=O)N2CC(=O)N(Cc3cccs3)CC(O)C2)cc1 (centres undefined)	24.52%
O=C(O)C(F)(F)F.O=C(O)C(F)(F)F.[H][C@]12C[C@@H](CN3CCCC3)N(C)[C@@]1([H])CCN(C(=O)Cc1ccsc1)C2	12.27%
CC(C)CN1CCC2(CCCNC2)C1=O.Cl (centres undefined)	-8.144%
O=C(O)C(F)(F)F.O=C(O)C(F)(F)F.[H][C@]12C[C@@H](CN3CCCC3)N(c3nccs3)[C@@]1([H])CCN(C(=O)CC)C2	4.709%
CC(CNC(=O)C1(c2ccc(F)cc2)CC1)CN1CCCC1=O (centres undefined)	6.311%
Cc1ccc(C(=O)N2CCN(CC(C)O)CC2)cc1S(C)(=O)=O (centres undefined)	5.817%
CC1CCN(C(=O)c2cccc3ncccc23)CC1	-11.76%
COCC(=O)N1CCCC1c1nc(C)c2c(n1)N(CC(C)C)C(=O)CC2 (centres undefined)	4.472%
[H][C@]12CCN(C(=O)c3ccncc3F)[C@@]1([H])CC[C@@H](COCC)O2	-7.982%
[H][C@@]12CCN(C(=O)Cc3cccc(O)c3)C[C@]1([H])[C@@H](c1ccccc1)CN2C	-6.866%
O=C(O)C(F)(F)F.[H][C@@]12COC[C@]1([H])[C@H](OCc1csc(C)n1)CN2Cc1ccc(OC)cc1	2.526%
O=C(CCC1CCCO1)NCc1ccccc1Cn1cncn1 (centres undefined)	9.605%
CCn1c(SCC(=O)N2CCCC2)nc2cc(C)[nH]c2c1=O	15.53%
Cc1noc(C)c1CC(=O)N1CCC(Nc2cccnn2)CC1	-130.3%
N#Cc1ccc(NCCS(=O)(=O)N2CCc3ccccc32)nc1	-7.432%
CCCN1CCC(C(=O)NCCN(CC)c2ccccc2C)CC1	10.51%
COc1cc(CCC(=O)NC2CCCN(C)C2)ccc1OCC(F)(F)F (centres undefined)	-5.476%
OCCNc1nccc(-c2cn3nccc3nc2C2CCCCC2)n1	1.27%
CC(C)(C)NC(=O)C1CSCN1S(=O)(=O)c1ccccc1S(C)(=O)=O (centres undefined)	-16.32%
Cc1nn(C)c(N(C)C)c1CNCc1ccc(Cn2cncn2)cc1	7.739%
O=C(NCCCNc1ccc(C(F)(F)F)cn1)c1ccccc1	5.224%
CCn1cc(NC(=O)NCc2ccc(CN3CCOCC3)cc2)cn1	4.872% and 2.844% and 3.198%
O=C(O)C(F)(F)F.[H][C@@]12CN(Cc3ccc(C)o3)CCC[C@]1(C(=O)O)CN(c1ncccn1)C2	-6.818%
Nc1nc2c(c(=O)[nH]1)CCN(C(=O)c1cccc3nccnc13)C2	2.181%
CN(C)Cc1cn(-c2ccccc2C(=O)NCC2CCCCN2C)cn1 (centres undefined)	-0.3208%
[H][C@@]12CN(C(=O)CCOC)C[C@]1([H])C(=O)N(Cc1cccc(C)c1)C2	5.166%
c1ccc2oc(N3CCCC4(CCOC4)C3)nc2c1 (centres undefined)	-10.17% and -5.658% and -38.16%
O=C1N(Cc2cccc(F)c2F)CCCC1(O)CNCC1CCCCC1 (centres undefined)	5.799%
Cc1cc(Nc2cnccn2)cc(C2CCCNC2)n1 (centres undefined)	8.117%
COc1ccc(CNCC2CNc3ccnn3C2)cn1 (centres undefined)	9.889%
OC1CCN(c2ccnc3c(F)cc(Br)cc23)CC1	-0.6519%
Cc1ccc(C(=O)N2CCCCC2CNC(N)=O)cc1F (centres undefined)	-13.36%
CCC[C@@H]1CN(C(=O)c2c(F)ccc(C)c2Cl)C[C@H]1C(=O)O	7.996%
CCOC1COC2(CCN(S(=O)(=O)c3cccc(F)c3)CC2)C1 (centres undefined)	-4.81%
CCc1nnsc1C(=O)N1CCCC(n2nc(C)nc2C)C1 (centres undefined)	2.808%
Cc1cnc(N2CCC3(CCN(CC4CCCC4)C3=O)CC2)nc1.O=C(O)C(F)(F)F	-2.708%
Cc1ccccc1C(CC(=O)N1CCc2sccc2C1)NC(N)=O (centres undefined)	5.192%
CCc1nc2n(n1)CC(NCc1nc(-c3ccccn3)no1)CC2 (centres undefined)	7.954% and -10.45% and -0.2214%
CCc1nc(C2CCCN2CC(=O)Nc2cc(C)no2)no1 (centres undefined)	-3.839%
Cn1cc(Cl)cc1C(=O)N1CCN(CCc2cccs2)CC1	-3.134%
O=C(COc1cccc(F)c1)N1C[C@@H](O)[C@H](N2CCCC2)C1	-13.15%
Cn1ccnc1CN1CCC2(CC(=O)N(c3ccccn3)C2)C1.O=C(O)C(F)(F)F.O=C(O)C(F)(F)F (centres undefined)	-8.073%
CC(C)n1ncc2cc(NC(=O)N3CCC(C(N)=O)C3)cnc21 (centres undefined)	10.47%
CN1CCC(NC(=O)CC2CN(Cc3ccccc3)CCO2)CC1 (centres undefined)	-18.38% and -21.31%
CNc1cc(C)nc(C2COCCN2CCc2ccc(F)cc2)n1 (centres undefined)	9.674%
Cn1cc(N2CC3(CCN(S(=O)(=O)C4CC4)C3)CC2=O)cn1 (centres undefined)	-0.7576%
Cc1cnc(C(=O)NC(COCC(C)C)c2ccco2)cn1 (centres undefined)	0.1288%

The first 7 entries again:

| compound | percent effect |
|---|---|
| `CCn1cc(CN2CCCN(C(=O)CCCn3cncn3)CC2)cn1` | -0.1635% |
| `O=C1NCC2(CCCN(CCc3ccccc3)C2)Oc2ccccc21` (centres undefined) | -6.754% |
| `CCNc1ccnc(NC2CCN(CC(N)=O)CC2)n1` | 0.3552% |
| `CC(C)Nc1ncc(-c2csc(NC(=O)C[C@H]3COCCN3)n2)cn1` | 19.73% |
| `Cc1ccsc1C(=O)NCCCn1nc2ccccn2c1=O` | -0.4177% |
| `CC(C)c1nc(C2CCCN(C(=O)Cn3ccccc3=O)C2)no1` (centres undefined) | 9.955% |
| `CCc1nc(C2CCCN(C(=O)c3ccc(OC)cc3)C2)no1` (centres undefined) | 16.16% and -1.463% and 1.713% |